# Test results as given in the supplement of paper PMC10849652.
# Amino acid sequences for entries named in this document (tags omitted). A change or cut given only in a name is not applied to a line headed by its entry.
# UniProt Q9HC77: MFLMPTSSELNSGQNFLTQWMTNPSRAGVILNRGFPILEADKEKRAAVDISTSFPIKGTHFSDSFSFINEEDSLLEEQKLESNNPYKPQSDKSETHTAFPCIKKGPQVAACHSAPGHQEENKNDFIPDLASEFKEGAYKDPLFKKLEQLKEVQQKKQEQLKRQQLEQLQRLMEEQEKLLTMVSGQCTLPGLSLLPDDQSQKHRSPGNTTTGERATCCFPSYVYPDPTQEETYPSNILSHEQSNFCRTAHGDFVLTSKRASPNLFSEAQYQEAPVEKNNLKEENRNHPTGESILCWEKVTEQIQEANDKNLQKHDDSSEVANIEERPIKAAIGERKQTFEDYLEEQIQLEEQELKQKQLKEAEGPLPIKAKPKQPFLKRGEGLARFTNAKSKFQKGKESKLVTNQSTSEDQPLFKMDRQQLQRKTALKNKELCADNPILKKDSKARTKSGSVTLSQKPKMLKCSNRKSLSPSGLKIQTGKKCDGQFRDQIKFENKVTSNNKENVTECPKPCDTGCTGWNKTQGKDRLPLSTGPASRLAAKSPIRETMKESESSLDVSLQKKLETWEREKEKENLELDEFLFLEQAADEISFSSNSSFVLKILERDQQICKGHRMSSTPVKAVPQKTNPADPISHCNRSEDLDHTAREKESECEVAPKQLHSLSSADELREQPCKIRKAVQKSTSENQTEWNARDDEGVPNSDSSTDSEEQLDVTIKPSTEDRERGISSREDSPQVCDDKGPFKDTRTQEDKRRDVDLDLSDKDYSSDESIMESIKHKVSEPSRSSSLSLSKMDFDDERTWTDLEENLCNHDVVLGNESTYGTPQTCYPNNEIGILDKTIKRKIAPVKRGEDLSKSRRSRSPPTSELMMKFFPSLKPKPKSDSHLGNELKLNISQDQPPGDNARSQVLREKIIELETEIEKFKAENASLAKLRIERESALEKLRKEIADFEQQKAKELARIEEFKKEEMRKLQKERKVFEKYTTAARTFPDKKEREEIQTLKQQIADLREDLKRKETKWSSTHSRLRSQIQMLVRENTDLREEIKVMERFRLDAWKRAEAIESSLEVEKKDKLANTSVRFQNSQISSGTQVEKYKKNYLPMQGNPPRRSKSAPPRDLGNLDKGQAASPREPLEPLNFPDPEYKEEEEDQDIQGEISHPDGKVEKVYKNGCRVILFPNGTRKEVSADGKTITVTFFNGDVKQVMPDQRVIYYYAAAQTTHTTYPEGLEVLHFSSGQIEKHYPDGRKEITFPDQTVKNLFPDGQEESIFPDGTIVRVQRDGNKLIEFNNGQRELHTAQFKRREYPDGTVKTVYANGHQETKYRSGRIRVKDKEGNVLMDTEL
# UniProt Q14004, whole entry, looked up: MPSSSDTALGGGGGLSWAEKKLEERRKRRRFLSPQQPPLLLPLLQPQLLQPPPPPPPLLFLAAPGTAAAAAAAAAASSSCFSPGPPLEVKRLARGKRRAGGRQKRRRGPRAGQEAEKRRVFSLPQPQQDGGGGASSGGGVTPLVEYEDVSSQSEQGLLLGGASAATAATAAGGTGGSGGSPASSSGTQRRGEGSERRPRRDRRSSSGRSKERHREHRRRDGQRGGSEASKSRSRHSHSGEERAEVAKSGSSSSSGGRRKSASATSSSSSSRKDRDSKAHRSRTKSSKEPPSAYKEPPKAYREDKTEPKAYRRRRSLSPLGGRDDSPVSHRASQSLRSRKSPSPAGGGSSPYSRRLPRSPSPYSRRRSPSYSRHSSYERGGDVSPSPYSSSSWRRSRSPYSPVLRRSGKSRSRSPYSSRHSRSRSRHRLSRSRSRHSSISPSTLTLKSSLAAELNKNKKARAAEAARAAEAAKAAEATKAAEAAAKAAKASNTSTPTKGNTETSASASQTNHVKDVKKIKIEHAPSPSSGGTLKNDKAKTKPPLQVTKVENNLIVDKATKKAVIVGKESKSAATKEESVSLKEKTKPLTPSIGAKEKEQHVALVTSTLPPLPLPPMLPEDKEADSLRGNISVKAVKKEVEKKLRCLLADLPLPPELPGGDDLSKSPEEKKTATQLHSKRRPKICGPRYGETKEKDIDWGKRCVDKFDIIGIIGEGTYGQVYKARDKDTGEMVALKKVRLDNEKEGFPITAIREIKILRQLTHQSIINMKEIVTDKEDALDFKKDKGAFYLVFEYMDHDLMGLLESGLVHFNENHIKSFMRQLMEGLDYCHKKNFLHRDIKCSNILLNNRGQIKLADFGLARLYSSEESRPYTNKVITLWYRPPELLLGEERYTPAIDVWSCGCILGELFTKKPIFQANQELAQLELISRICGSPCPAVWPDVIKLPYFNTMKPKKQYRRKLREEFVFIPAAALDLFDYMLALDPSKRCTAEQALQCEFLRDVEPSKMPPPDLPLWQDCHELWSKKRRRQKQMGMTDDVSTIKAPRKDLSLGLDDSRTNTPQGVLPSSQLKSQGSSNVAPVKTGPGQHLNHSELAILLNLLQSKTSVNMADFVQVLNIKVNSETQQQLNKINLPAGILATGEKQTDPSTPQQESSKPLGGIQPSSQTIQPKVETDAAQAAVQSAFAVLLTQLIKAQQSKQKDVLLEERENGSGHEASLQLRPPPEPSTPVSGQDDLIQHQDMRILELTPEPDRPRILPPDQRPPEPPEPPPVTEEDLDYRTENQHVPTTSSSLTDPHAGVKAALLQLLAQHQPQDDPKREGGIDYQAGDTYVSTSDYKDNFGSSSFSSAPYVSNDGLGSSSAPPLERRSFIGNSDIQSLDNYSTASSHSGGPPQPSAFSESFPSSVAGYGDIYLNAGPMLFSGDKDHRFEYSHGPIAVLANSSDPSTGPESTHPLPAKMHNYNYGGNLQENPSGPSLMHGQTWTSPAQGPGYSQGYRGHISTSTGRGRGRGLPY
# UniProt P41208: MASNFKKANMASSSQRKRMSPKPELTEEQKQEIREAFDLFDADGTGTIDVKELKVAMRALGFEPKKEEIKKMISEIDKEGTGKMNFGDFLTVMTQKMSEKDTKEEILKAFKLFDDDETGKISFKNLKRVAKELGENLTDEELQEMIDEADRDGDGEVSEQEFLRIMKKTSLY
# UniProt Q71F23: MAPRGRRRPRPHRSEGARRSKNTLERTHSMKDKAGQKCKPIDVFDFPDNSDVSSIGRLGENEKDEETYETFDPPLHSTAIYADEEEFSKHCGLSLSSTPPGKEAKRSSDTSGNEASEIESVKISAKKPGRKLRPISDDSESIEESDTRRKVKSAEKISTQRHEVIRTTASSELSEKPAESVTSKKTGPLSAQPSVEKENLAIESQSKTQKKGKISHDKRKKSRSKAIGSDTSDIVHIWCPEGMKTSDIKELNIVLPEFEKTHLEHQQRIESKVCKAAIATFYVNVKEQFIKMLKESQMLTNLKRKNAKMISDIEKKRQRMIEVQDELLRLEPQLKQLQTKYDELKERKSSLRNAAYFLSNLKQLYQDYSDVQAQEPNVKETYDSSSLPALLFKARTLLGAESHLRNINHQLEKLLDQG
# UniProt P14209: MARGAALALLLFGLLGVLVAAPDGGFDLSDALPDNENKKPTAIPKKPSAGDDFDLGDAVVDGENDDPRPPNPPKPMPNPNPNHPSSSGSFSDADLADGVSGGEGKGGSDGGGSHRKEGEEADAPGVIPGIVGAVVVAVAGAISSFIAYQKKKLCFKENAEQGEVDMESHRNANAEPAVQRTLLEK
# UniProt O94986: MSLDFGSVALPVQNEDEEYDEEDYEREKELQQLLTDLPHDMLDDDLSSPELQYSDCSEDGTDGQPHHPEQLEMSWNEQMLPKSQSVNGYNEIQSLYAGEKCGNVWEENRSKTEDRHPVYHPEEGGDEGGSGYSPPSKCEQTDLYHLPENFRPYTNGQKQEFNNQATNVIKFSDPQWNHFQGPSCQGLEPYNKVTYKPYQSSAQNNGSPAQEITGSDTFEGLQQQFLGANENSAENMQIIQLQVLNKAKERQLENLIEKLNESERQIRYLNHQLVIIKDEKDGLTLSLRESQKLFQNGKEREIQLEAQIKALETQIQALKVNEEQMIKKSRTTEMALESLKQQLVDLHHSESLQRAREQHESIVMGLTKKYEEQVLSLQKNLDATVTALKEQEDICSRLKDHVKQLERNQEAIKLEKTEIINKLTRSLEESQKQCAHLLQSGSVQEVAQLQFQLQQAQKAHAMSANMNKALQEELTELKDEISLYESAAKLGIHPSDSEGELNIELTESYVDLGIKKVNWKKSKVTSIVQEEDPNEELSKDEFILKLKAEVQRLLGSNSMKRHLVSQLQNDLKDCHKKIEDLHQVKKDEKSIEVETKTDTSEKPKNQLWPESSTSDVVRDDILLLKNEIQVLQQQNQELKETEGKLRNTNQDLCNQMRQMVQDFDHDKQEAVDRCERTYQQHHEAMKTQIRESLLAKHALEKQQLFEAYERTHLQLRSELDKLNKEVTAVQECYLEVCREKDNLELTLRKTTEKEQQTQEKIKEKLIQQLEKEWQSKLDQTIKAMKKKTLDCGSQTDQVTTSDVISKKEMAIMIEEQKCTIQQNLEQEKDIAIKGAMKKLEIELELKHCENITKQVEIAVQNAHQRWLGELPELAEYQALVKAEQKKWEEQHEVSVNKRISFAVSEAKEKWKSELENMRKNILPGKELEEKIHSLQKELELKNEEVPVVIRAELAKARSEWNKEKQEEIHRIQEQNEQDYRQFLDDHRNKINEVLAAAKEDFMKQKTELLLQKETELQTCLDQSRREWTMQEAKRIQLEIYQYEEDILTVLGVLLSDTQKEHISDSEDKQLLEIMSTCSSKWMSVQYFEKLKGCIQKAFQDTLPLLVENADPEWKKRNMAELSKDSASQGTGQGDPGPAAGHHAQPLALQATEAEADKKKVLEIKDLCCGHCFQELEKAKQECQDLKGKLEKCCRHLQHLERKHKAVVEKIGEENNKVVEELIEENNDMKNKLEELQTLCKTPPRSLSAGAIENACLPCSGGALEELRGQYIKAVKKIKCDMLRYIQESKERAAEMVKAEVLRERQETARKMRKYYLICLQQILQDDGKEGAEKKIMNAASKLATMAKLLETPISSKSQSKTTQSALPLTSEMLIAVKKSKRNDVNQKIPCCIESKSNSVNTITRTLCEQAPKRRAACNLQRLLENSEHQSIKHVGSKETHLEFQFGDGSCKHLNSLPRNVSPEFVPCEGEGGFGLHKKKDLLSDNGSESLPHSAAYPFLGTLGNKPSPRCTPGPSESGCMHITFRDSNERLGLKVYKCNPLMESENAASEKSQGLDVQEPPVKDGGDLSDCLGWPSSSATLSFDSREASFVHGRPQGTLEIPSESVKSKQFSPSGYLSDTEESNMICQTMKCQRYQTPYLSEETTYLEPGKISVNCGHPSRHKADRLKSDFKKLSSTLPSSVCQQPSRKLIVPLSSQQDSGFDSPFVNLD
# UniProt Q9BUX1: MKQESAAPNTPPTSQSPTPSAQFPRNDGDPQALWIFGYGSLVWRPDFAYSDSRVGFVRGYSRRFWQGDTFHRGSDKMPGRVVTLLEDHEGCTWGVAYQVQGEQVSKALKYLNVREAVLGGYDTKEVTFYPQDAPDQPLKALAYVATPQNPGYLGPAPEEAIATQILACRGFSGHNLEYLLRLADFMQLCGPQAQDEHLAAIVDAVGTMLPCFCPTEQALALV
# UniProt O76039: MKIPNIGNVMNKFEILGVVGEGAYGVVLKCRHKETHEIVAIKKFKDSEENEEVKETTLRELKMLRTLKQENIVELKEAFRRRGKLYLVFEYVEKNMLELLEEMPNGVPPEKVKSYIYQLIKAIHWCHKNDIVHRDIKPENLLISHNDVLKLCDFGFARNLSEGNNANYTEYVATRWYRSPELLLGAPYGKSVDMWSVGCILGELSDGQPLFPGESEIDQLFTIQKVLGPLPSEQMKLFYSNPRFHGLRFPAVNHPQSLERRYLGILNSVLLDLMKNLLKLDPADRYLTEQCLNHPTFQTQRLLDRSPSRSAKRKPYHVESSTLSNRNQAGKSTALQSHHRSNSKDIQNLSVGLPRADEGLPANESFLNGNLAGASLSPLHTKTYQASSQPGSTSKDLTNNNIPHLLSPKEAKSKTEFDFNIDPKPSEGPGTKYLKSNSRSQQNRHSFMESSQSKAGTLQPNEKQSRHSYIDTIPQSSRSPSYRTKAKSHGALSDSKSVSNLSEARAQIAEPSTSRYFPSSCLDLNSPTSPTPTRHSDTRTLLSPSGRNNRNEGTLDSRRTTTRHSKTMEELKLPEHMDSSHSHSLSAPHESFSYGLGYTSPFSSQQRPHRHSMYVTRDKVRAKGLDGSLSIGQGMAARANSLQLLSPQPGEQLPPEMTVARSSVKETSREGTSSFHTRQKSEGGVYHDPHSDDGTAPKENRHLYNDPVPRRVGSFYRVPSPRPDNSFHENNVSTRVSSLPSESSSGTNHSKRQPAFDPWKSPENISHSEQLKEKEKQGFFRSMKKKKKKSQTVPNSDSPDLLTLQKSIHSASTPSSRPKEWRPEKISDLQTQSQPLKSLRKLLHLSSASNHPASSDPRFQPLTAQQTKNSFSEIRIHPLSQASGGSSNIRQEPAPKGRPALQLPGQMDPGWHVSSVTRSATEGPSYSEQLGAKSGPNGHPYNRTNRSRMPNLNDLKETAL
# The list shows a part of the results.
# Experiments:
# Assay in all cases: log2 fold change, soluble protein after heating vs DMSO (PISA); higher = thermal stabilisation; K562 lysate, 10 uM; active = over 0.2 and 3.5 SD of the protein, either way, in both replicates (recomputed)
# vemurafenib = compound: CCCS(=O)(=O)Nc1ccc(F)c(C(=O)c2c[nH]c3ncc(-c4ccc(Cl)cc4)cc23)c1F [vemurafenib]
# Procedure, shortened: (§1)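 K562 pellets were dounce-homogenised in PBS pH 7.4 with 1 mM MgCl2, and the crude extract at 1 mg/mL protein was treated with 10 μM compound for 30 min. Aliquots were heated for 3 min across 48°C-58°C, pooled, and brought to 0.5% NP-40 at 4°C; soluble protein was the supernatant after 21,000xg for 90 min. Soluble protein was quantified by TMTpro 16plex LC-MS/MS with channel sums equalised, and reported as log2 fold change in thermal stability against DMSO controls, with values from duplicates.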
# [1] = compound: CCCS(=O)(=O)Nc1ccc(F)c(C(=O)c2c[nH]c3ncc(Cl)cc23)c1F
# Procedure, shortened: as §1
# barasertib = compound: CCN(CCCOc1ccc2c(Nc3cc(CC(=O)Nc4cccc(F)c4)[nH]n3)ncnc2c1)CCOP(=O)(O)O [barasertib]
# Procedure, shortened: as §1
# [2] = compound: CC[C@@H]1C(=O)N(C)c2cnc(Nc3ccc(C(=O)NC4CCN(C)CC4)cc3OC)nc2N1C1CCCC1
# Procedure, shortened: as §1
# volasertib = compound: CC[C@@H]1C(=O)N(C)c2cnc(Nc3ccc(C(=O)N[C@H]4CC[C@H](N5CCN(CC6CC6)CC5)CC4)cc3OC)nc2N1C(C)C [volasertib]
# Procedure, shortened: as §1
# [3] = compound: CCn1c(C(=O)N(C2CC2)C2CC2)cc2c3c(ncn3C)c(Nc3cc(C)n(C)n3)nc21
# Procedure, shortened: as §1
# saracatinib = compound: CN1CCN(CCOc2cc(OC3CCOCC3)c3c(Nc4c(Cl)ccc5c4OCO5)ncnc3c2)CC1 [saracatinib]
# Procedure, shortened: as §1
# sotrastaurin = compound: CN1CCN(c2nc(C3=C(c4c[nH]c5ccccc45)C(=O)NC3=O)c3ccccc3n2)CC1 [sotrastaurin]
# Procedure, shortened: as §1
# Tubastatin A = compound: CN1CCc2c(c3ccccc3n2Cc2ccc(C(=O)NO)cc2)C1 [Tubastatin A]
# Procedure, shortened: as §1
# [4] = compound: CNC(=O)C1=CC=CC=C1NC2=NC(=NC=C2Cl)NC3=C(C=C(C=C3)N4CCOCC4)OC
# Procedure, shortened: as §1
# defactinib = compound: CNC(=O)c1ccc(Nc2ncc(C(F)(F)F)c(NCc3nccnc3N(C)S(C)(=O)=O)n2)cc1 [defactinib]
# Procedure, shortened: as §1
# [5] = compound: CNc1nc(-c2ccc3c(N)n[nH]c3c2)cc(N2C[C@@H](C(=O)NC3CCCCC3)CC[C@H]2C)n1
# Procedure, shortened: as §1
# encorafenib = compound: COC(=O)N[C@@H](C)CNc1nccc(-c2cn(C(C)C)nc2-c2cc(Cl)cc(NS(C)(=O)=O)c2F)n1 [encorafenib]
# Procedure, shortened: as §1
# [6] = compound: COC(=O)[C@H](CCSC)NC(=O)C1=C(C=C(C=C1)NC[C@H](CS)N)C2=CC=CC=C2
# Procedure, shortened: as §1
# [7] = compound: COc1cc2nc(-c3cc(F)ccc3O)nc(N[C@@H]3CNC[C@H]3C(C)(C)O)c2cc1OC
# Procedure, shortened: as §1
# [8] = compound: CCn1cc(-c2ccnc3[nH]c(-c4cccc(CN(C)C)c4)cc23)c(-c2ccc(NC(=O)N(C)C)cc2)n1
# Procedure, shortened: as §1
# [9] = compound: CN1CCC(CNc2ccc3ncc(-c4cccc(OC(F)(F)F)c4)n3n2)CC1
# Procedure, shortened: as §1
# alvocidib = compound: CN1CC[C@H](c2c(O)cc(O)c3c(=O)cc(-c4ccccc4Cl)oc23)[C@H](O)C1 [alvocidib]
# Procedure, shortened: as §1
# alisertib = compound: COc1cc(Nc2ncc3c(n2)-c2ccc(Cl)cc2C(c2c(F)cccc2OC)=NC3)ccc1C(=O)O [alisertib]
# Procedure, shortened: as §1
# gefitinib = compound: COc1cc2ncnc(Nc3ccc(F)c(Cl)c3)c2cc1OCCCN1CCOCC1 [gefitinib]
# Procedure, shortened: as §1
Target,log2 fold change (vemurafenib),log2 fold change [1],log2 fold change (barasertib),log2 fold change [2],log2 fold change (volasertib),log2 fold change [3],log2 fold change (saracatinib),log2 fold change (sotrastaurin),log2 fold change (Tubastatin A),log2 fold change [4],log2 fold change (defactinib),log2 fold change [5],log2 fold change (encorafenib),log2 fold change [6],log2 fold change [7],log2 fold change [8],log2 fold change [9],log2 fold change (alvocidib),log2 fold change (alisertib),log2 fold change (gefitinib)
CENPJ (UniProt Q9HC77),inactive: 0.118,inactive: 0.329,inactive: 0.019,inactive: 0.166,inactive: -0.103,inactive: 0.015,inactive: 0.015,inactive: 0.042,inactive: -0.011,inactive: 0.057,inactive: -0.069,inactive: 0.081,inactive: 0.029,inactive: 0.02,inactive: -0.091,,,,,
CDK13 (UniProt Q14004),inactive: -0.124,inactive: -0.031,inactive: -0.061,inactive: 0.002,inactive: -0.123,inactive: 0.106,inactive: 0.074,inactive: -0.036,inactive: -0.1,inactive: -0.044,inactive: 0.139,inactive: -0.184,inactive: -0.005,inactive: -0.033,inactive: 0.078,inactive: -0.09,inactive: 0.04,active: 0.287,inactive: 0.043,inactive: 0.007
CETN2 (UniProt P41208),inactive: 0,inactive: -0.012,inactive: -0.007,inactive: 0.022,inactive: 0.007,inactive: 0.095,inactive: 0.042,inactive: 0.032,inactive: -0.049,inactive: -0.02,inactive: 0.02,inactive: -0.025,inactive: 0.123,inactive: -0.047,inactive: -0.011,inactive: 0.064,inactive: 0.029,inactive: -0.011,inactive: 0.057,inactive: 0.005
CDK1 (UniProt P06493),inactive: 0.012,inactive: -0.017,inactive: -0.029,inactive: -0.041,inactive: -0.037,inactive: -0.006,inactive: 0.016,inactive: -0.002,inactive: -0.032,inactive: -0.017,inactive: -0.035,inactive: -0.021,inactive: 0.011,inactive: 0.036,active: 0.328,inactive: -0.056,inactive: -0.049,inactive: 0.036,inactive: 0.002,inactive: -0.03
CENPU (UniProt Q71F23),inactive: 0.044,inactive: -0.091,inactive: -0.085,inactive: 0.083,inactive: -0.055,inactive: 0.022,inactive: 0.001,inactive: -0.014,inactive: -0.017,inactive: 0.029,inactive: -0.05,inactive: 0.013,inactive: 0.088,inactive: -0.003,inactive: 0.129,inactive: 0.166,inactive: -0.034,inactive: -0.04,inactive: 0.092,inactive: 0.106
CENPV (UniProt Q7Z7K6),inactive: -0.104,,inactive: 0,inactive: -0.033,,inactive: 0.19,,inactive: 0.007,inactive: -0.458,,inactive: 0.117,,inactive: 0.323,inactive: -0.045,,inactive: 0.264,inactive: -0.004,inactive: -0.15,inactive: -0.205,inactive: 0.789
CDC37 (UniProt K7EKQ2),inactive: 0.079,inactive: 0.079,,,inactive: 0.007,inactive: -0.025,inactive: -0.006,inactive: -0.082,inactive: -0.01,inactive: -0.04,inactive: 0,inactive: 0.058,,,inactive: -0.042,inactive: 0.218,inactive: 0.081,inactive: -0.084,inactive: 0.31,inactive: -0.074
CDC37 (UniProt K7EL68),inactive: 0.012,,inactive: -0.01,,,,,inactive: -0.089,,,inactive: 0.01,,,,,inactive: 0.179,inactive: 0.083,inactive: -0.054,,
CDK17 isoform 2 (UniProt Q00537),inactive: -0.115,,inactive: 0.011,inactive: -0.078,,inactive: -0.007,inactive: -0.017,inactive: 0.03,inactive: -0.015,inactive: -0.051,inactive: 0.139,inactive: -0.018,inactive: 0.099,inactive: -0.129,,inactive: 0.091,inactive: -0.299,active: 0.599,inactive: -0.121,inactive: -0.132
CDK2AP2 (UniProt O75956),inactive: -0.3,inactive: -0.002,inactive: 0.082,,inactive: 0.068,,inactive: 0.003,inactive: -0.181,,inactive: 0.02,inactive: -0.06,inactive: 0.161,,,inactive: -0.01,inactive: 0.181,inactive: -0.023,inactive: -0.031,inactive: 0.022,inactive: -0.113
CENPP (UniProt Q6IPU0),inactive: -0.001,inactive: 0.011,,inactive: 0.038,inactive: 0.096,inactive: 0.063,inactive: -0.196,inactive: -0.019,inactive: -0.036,inactive: -0.049,inactive: 0.019,inactive: 0.092,inactive: 0.062,inactive: 0.075,inactive: 0.008,inactive: 0.033,inactive: 0.025,inactive: -0.057,inactive: 0.068,inactive: 0.078
CFAP410 (UniProt O43822),inactive: -0.016,,inactive: 0.037,inactive: -0.015,,inactive: -0.063,,inactive: 0,inactive: -0.117,inactive: 0.239,inactive: -0.147,,inactive: -0.017,inactive: 0.101,,,,,inactive: -0.186,inactive: 0.297
CERS5 (UniProt Q8N5B7),,inactive: 0.091,inactive: -0.005,inactive: 0.018,inactive: -0.012,inactive: -0.002,inactive: -0.041,inactive: 0.095,inactive: 0.021,inactive: -0.032,,inactive: 0.039,inactive: -0.034,inactive: -0.061,inactive: -0.009,inactive: -0.05,inactive: 0.128,inactive: 0.026,,
CFL1 (UniProt E9PP50),,inactive: -0.127,inactive: 1.26,inactive: -0.064,inactive: -0.102,,,,,,,,inactive: 0.113,inactive: 0.108,inactive: 0.089,,,,,
CEP83 (UniProt Q9Y592),inactive: -0.052,inactive: -0.003,,,inactive: 0.049,inactive: -0.022,,inactive: -0.076,inactive: 0.076,inactive: 0.012,inactive: 0.069,,,,inactive: 0.074,inactive: 0.031,inactive: 0.002,inactive: 0.007,inactive: 0,inactive: -0.007
CD99 (UniProt P14209),inactive: 0.013,inactive: 0.103,,,inactive: -0.035,inactive: -0.039,inactive: 0.173,inactive: -0.089,inactive: 0.031,inactive: 0.066,inactive: 0.21,inactive: -0.265,,,inactive: 0.068,inactive: -0.01,inactive: -0.063,inactive: 0.038,inactive: 0.018,inactive: -0.083
CEP152 (UniProt O94986),inactive: 0.031,,inactive: 0.106,inactive: 0.25,,inactive: 0.008,inactive: 0.051,inactive: -0.039,inactive: -0.061,inactive: 0.019,inactive: 0.019,inactive: 0.182,inactive: -0.064,inactive: 0.04,,inactive: -0.009,inactive: 0.272,inactive: -0.077,inactive: -0.007,inactive: 0.008
CHAC1 (UniProt Q9BUX1),inactive: -0.116,,inactive: 0.071,,,,inactive: -0.214,inactive: 0.013,,,inactive: 0,inactive: 0.404,,,,,,,,
CDK8 (UniProt P49336),inactive: 0.065,inactive: 0.138,inactive: 0.002,,inactive: -0.083,inactive: -0.011,inactive: 0.109,inactive: -0.001,inactive: -0.059,inactive: -0.065,inactive: -0.101,inactive: 0.083,,,inactive: -0.047,inactive: -0.134,inactive: 0.045,active: 0.384,inactive: -0.052,inactive: 0.07
CD99L2 isoform 5 (UniProt Q8TCZ2),inactive: 0.097,inactive: 0.189,,,inactive: 0.109,,inactive: 0.034,inactive: -0.008,,inactive: -0.08,inactive: -0.096,inactive: 0.084,,,inactive: -0.051,inactive: 0.057,inactive: -0.039,inactive: -0.115,inactive: 0.161,inactive: 0.003
CDKL5 (UniProt O76039),inactive: -0.131,inactive: 0.041,,inactive: -0.149,inactive: -0.035,,inactive: -0.122,inactive: 0.048,,,inactive: 0.55,inactive: -0.052,inactive: -0.038,inactive: -0.116,inactive: 0.058,inactive: -0.091,inactive: 0.088,active: 1.14,,

# An excerpt of these results, tab-delimited.
Target	log2 fold change (vemurafenib)	log2 fold change [1]	log2 fold change (barasertib)	log2 fold change [2]	log2 fold change (volasertib)	log2 fold change [3]	log2 fold change (saracatinib)	log2 fold change (sotrastaurin)	log2 fold change (Tubastatin A)	log2 fold change [4]	log2 fold change (defactinib)	log2 fold change [5]	log2 fold change (encorafenib)	log2 fold change [6]	log2 fold change [7]	log2 fold change [8]	log2 fold change [9]	log2 fold change (alvocidib)	log2 fold change (alisertib)	log2 fold change (gefitinib)
CERS5 (UniProt Q8N5B7)		inactive: 0.091	inactive: -0.005	inactive: 0.018	inactive: -0.012	inactive: -0.002	inactive: -0.041	inactive: 0.095	inactive: 0.021	inactive: -0.032		inactive: 0.039	inactive: -0.034	inactive: -0.061	inactive: -0.009	inactive: -0.05	inactive: 0.128	inactive: 0.026		
CFL1 (UniProt E9PP50)		inactive: -0.127	inactive: 1.26	inactive: -0.064	inactive: -0.102								inactive: 0.113	inactive: 0.108	inactive: 0.089					
CEP83 (UniProt Q9Y592)	inactive: -0.052	inactive: -0.003			inactive: 0.049	inactive: -0.022		inactive: -0.076	inactive: 0.076	inactive: 0.012	inactive: 0.069				inactive: 0.074	inactive: 0.031	inactive: 0.002	inactive: 0.007	inactive: 0	inactive: -0.007
CD99 (UniProt P14209)	inactive: 0.013	inactive: 0.103			inactive: -0.035	inactive: -0.039	inactive: 0.173	inactive: -0.089	inactive: 0.031	inactive: 0.066	inactive: 0.21	inactive: -0.265			inactive: 0.068	inactive: -0.01	inactive: -0.063	inactive: 0.038	inactive: 0.018	inactive: -0.083
CEP152 (UniProt O94986)	inactive: 0.031		inactive: 0.106	inactive: 0.25		inactive: 0.008	inactive: 0.051	inactive: -0.039	inactive: -0.061	inactive: 0.019	inactive: 0.019	inactive: 0.182	inactive: -0.064	inactive: 0.04		inactive: -0.009	inactive: 0.272	inactive: -0.077	inactive: -0.007	inactive: 0.008
CHAC1 (UniProt Q9BUX1)	inactive: -0.116		inactive: 0.071				inactive: -0.214	inactive: 0.013			inactive: 0	inactive: 0.404								
